Experimental data taken from the supplement of paper PMC10735217.
Structures can show the parent of a compound that is named as a salt. The list shows a part of the results. This data set is noisy: repeats of one test often differ as much as different tests do.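 The human kidney-derived cells carry a stably integrated construct of eight TEAD-binding elements driving luciferase, read by luminescence in a drug-repurposing library screen. A compound counts as a hit when its signal is more than five robust Z scores above the plate mean.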

System: HEK293A TEAD-LUC reporter
Assay: TEAD-luciferase reporter activity (YAP activation), robust Z score vs plate; higher = stronger YAP/TEAD activation
Conditions: 24 h

SMILES | TEAD-luciferase reporter activity (compound concentration: 200 nM) | TEAD-luciferase reporter activity (compound concentration: 2 uM) | TEAD-luciferase reporter activity (compound concentration: 10 uM)
O=C(Nc1cc(C(F)(F)F)cc(C(F)(F)F)c1)c1cc(Cl)ccc1O | inactive: -1.9 | inactive: -1.13 | inactive: -2.08
C1CCC(C(CC2CCCCN2)C2CCCCC2)CC1 (configuration not stated) | inactive: 0.096 | inactive: -0.956 | inactive: -0.0521
CC(=O)NC1C(O)CC(OCC2OC(OC3C(CO)OC(O)C(O)C3O)C(O)C(O)C2O)(C(=O)[O-])OC1[C@H](O)[C@H](O)CO (some centres not stated) [6'-Sialyllactose] | inactive: -1.05 | inactive: 2.21 | inactive: -1.01
NCCCC[C@H](NC(=O)[C@@H](Cc1ccccc1)NC(=O)[C@H](Cc1c[nH]c2ccccc12)NC(=O)[C@@H](CCCCN)NC(=O)[C@@H](Cc1c[nH]c2ccccc12)NC(=O)[C@@H](N)Cc1cnc[nH]1)C(N)=O | inactive: 0.815 | inactive: -0.503 | inactive: -0.717
CC(=O)N(CC(O)CO)c1c(I)c(C(=O)NCCO)c(I)c(C(=O)NCC(O)CO)c1I (configuration not stated) [Ioxilan] | inactive: -0.148 | inactive: 0.297 | inactive: 0.371
CC1OC(=O)N2c3ccc(O)cc3CCC12 (configuration not stated) | inactive: -1.97 | inactive: 0.378 | inactive: 1.07
COc1ccc(CS(=O)c2ncccc2C(=O)Nc2cc(C)nc(C)c2)c(OC)c1 (configuration not stated) | inactive: -1.1 | inactive: 0.464 | inactive: -1
Cc1nn(C2CCCC2)c2nc(-c3ccncc3)[nH]c(=O)c12 | inactive: -1.63 | inactive: -1.01 | inactive: -1.88
CCCCCC(CCCC)OC(=O)C(C[C@H](NC(=O)C(N)CC)C(=O)N[C@@H](CC1C=NC=N1)C(=O)N[C@@H](Cc1ccccc1)C(=O)N[C@H](CCCCN)C(=O)N[C@@H](Cc1ccccc1)C(=O)O)[S+](C)[O-] (some centres not stated) | inactive: 0.132 | inactive: -1.37 | inactive: 1.09
CCc1nc(C)ccc1O [Emoxipin hydrochloride] | inactive: -0.212 | inactive: 1.28 | inactive: -0.989
CC[C@H]1OC(=O)[C@H](C)[C@@H](O[C@H]2C[C@@](C)(OC)[C@@H](O)[C@H](C)O2)[C@H](C)[C@@H](O[C@@H]2O[C@H](C)C[C@H](N(C)C)[C@H]2O)[C@](C)(O)C[C@@H](C)/C(=N/OCOCCOC)[C@H](C)[C@@H](O)[C@]1(C)O [roxithromycin] | active: 6.14 | inactive: 0.195 | inactive: 0.115
CC1c2ccccc2CCN1c1ssc(=O)c1Cl (configuration not stated) | inactive: 0.421 | inactive: 0.999 | active: 6.54
COC(=O)[C@H](Cc1ccc(-n2c(=O)c3cc(N(C)C)ccc3n(C)c2=O)cc1)NC(=O)c1c(Cl)cccc1Cl | inactive: -1.32 | – | inactive: -0.379
N#Cc1ccc([C@H]2CCc3cncn32)c(F)c1 [Osilodrostat] | inactive: 0.374 | inactive: 1.76 | inactive: 2.67
CCOC(=O)C1=Cc2cc(Cl)ccc2OC1C(F)(F)F (configuration not stated) | inactive: -0.671 | inactive: -1.64 | inactive: 1.57
ClC(Cl)Cl | inactive: -0.191 | inactive: -1.59 | inactive: 4.62
CN(C)C(C)(C)CSc1nc2ccccc2cc1-c1ccccc1 | inactive: -1.01 | inactive: 0.959 | inactive: 4.77
Cc1cc(C)[n+]([N-]C(=O)c2ccc(Cl)c(S(N)(=O)=O)c2)c(C)c1 [Besulpamide] | inactive: -1.61 | inactive: -0.186 | inactive: -1.84
COc1ccc2cc(S(=O)(=O)N[C@H](CC(=O)N[C@H](Cc3ccc(CN4[C@H](C)CCC[C@@H]4C)cc3)C(=O)N(C)C(C)C)c3ccc4c(c3)OCO4)ccc2c1 | inactive: 0.209 | – | inactive: 1.02
CC(O)CO (configuration not stated) | inactive: -0.893 | inactive: -0.847 | inactive: 0.27
CNc1ccc(-c2cc3cc(O)ccc3o2)c(F)n1 | inactive: -0.122 | inactive: 4.26 | active: 5.19
N=C(N)NNCCOc1c(Cl)cccc1Cl | inactive: -0.422 | inactive: -1.46 | inactive: -1.91
CCOc1ccc(CN2CCCCC23Cc2ccccc2CNC3=O)cc1 (configuration not stated) | inactive: 1.1 | – | inactive: 0.82
CNC(=O)c1nn(C)c2c1C(C)(C)Cc1cnc(Nc3ccc(N4CCN(C)CC4)cc3)nc1-2 [milciclib maleate] | inactive: -0.436 | inactive: -2.26 | inactive: -1.26
CCOC(=O)C1=C[C@]2(CC)CCCN3CCc4c(n1c1ccccc41)[C@@H]32 [vinpocetine] | inactive: -0.81 | inactive: 3.25 | active: 12.2
Nc1nc(NC2CC2)c2ncn(CCOCP(=O)(O)O)c2n1 | inactive: 0.453 | inactive: -2.09 | inactive: 2.23
CC(C(=O)O)c1ccc(/C=C2\CCCC2=O)cc1 (configuration not stated) | inactive: -0.333 | inactive: -0.568 | inactive: 2.3

SMILES | TEAD-luciferase reporter activity (compound concentration: 200 nM) | TEAD-luciferase reporter activity (compound concentration: 2 uM) | TEAD-luciferase reporter activity (compound concentration: 10 uM)
COc1ncccc1C(=O)NCCC1CCN(S(=O)(=O)NC(=O)NC[C@H]2C[C@@H]3C=C[C@H]2C3)CC1 [Gliamilide] | inactive: 0.0285 | inactive: 0.401 | inactive: -0.684
COCCN1CCC(N(Cc2ccc(-c3ccc(C(F)(F)F)cc3)cc2)C(=O)Cn2c(SCc3cccc(F)c3F)cc(=O)c3ccccc32)CC1 | inactive: -2.04 | inactive: -1.68 | active: 6.46
CCS(=O)(=O)c1cc(C(=O)NCC2CCCN2CC2CC2)c(OC)cc1N (configuration not stated) | inactive: -1.01 | inactive: -0.806 | inactive: 1.21
COc1c(N2C[C@@H]3CCCN[C@@H]3C2)c(F)cc2c(=O)c(C(=O)O)cn(C3CC3)c12 [moxifloxacin punctum plug] | – | inactive: -1.29 | –
COc1c(N2C[C@@H]3CCCN[C@@H]3C2)c(F)cc2c(=O)c(C(=O)O)cn(C3CC3)c12 | – | inactive: -0.303 | –
COc1c(N2C[C@@H]3CCCN[C@@H]3C2)c(F)cc2c(=O)c(C(=O)O)cn(C3CC3)c12 [Moxifloxacin hydrochloride] | inactive: -1.36 | inactive: -0.0363 | inactive: -0.549
CCCCCCCCCCCC[N+](C)(C)CCOc1ccccc1 | inactive: -2.11 | inactive: -1.26 | inactive: -1.52
Cc1cccc(C)c1NC(=O)CN1CCN([C@@H]2CCN(C(=O)c3cc(C(F)(F)F)cc(C(F)(F)F)c3)[C@@H](Cc3ccccc3)C2)CC1 | inactive: 0.0682 | inactive: -1.04 | inactive: -0.925
CC[C@H](Nc1cc(C)nc2c(-c3ccc(OC)cc3C)c(C)nn12)c1nc(C)no1 [Verucerfont] | inactive: -0.69 | inactive: -1.76 | inactive: -1.22
CN(C(=O)CCCOc1ccc2[nH]c(=O)ccc2c1)C1CCCCC1 [Cilostamide] | inactive: -0.949 | – | inactive: -1.68
CN(C(=O)CCCOc1ccc2[nH]c(=O)ccc2c1)C1CCCCC1 [cilostamide] | – | inactive: 1.79 | –
O=c1cc(-c2ccc(O)c(O)c2)oc2cc(O)cc(O)c12 [Luteolin] | inactive: 4.89 | – | inactive: 1.18
O=c1cc(-c2ccc(O)c(O)c2)oc2cc(O)cc(O)c12 [Digitoflavone] | – | inactive: 2.04 | –
CN(C)C(=O)NC1CC2(CCN(Cc3ccc(O)cc3)CC2)Oc2ccccc21 (configuration not stated) | inactive: -0.239 | – | inactive: 1.11
CC/C(=C(\c1ccc(O)cc1)c1ccc(OCCNC)cc1)c1ccccc1 [Endoxifen (hydrochloride)] | inactive: -0.776 | inactive: -2.42 | inactive: 1.88
CC(=O)OC(C)C[N+](C)(C)C (configuration not stated) | inactive: 2.02 | inactive: 1.8 | inactive: 1.89
CCN(CC)CCNC(=O)c1cc(Br)c(N)cc1OC [bromopride] | inactive: 0.209 | inactive: -0.0963 | inactive: -0.569
CN1CCN2c3ncccc3Cc3ccccc3C2C1 (configuration not stated) [mirtazapine] | – | inactive: 0.512 | –
CN1CCN2c3ncccc3Cc3ccccc3C2C1 (configuration not stated) | inactive: -0.787 | – | inactive: -0.426
CCN(CC(=O)NC)C(=O)c1cc(OC)c(OC)c(OC)c1 | inactive: -1.04 | inactive: -0.964 | inactive: 0.551
Nc1ccc(S(=O)(=O)c2ccc(NCC(=O)O)cc2)cc1 | inactive: -0.076 | inactive: 0.547 | inactive: 0.353
CC(C)COC(=O)[C@H](Cc1ccccc1)NP(=O)(COCCn1cnc2c(NC3CC3)nc(N)nc21)N[C@@H](Cc1ccccc1)C(=O)OCC(C)C | inactive: -1.61 | inactive: -2.07 | inactive: -0.418
COc1ccc2c(c1)CN(C(=O)CCN1CCC(Cc3ccccc3)CC1)CCS2 | inactive: 0.0235 | inactive: -1.02 | inactive: 1.37
COC(=O)C1=C(C)NC(C)=C(C(=O)OCCN2CCN(c3ccc(Cl)c(Cl)c3)CC2)C1c1cccc([N+](=O)[O-])c1 (configuration not stated) | inactive: -0.833 | inactive: 2.4 | inactive: 0.607
CCC(C)CCCCC(=O)N[C@@H](CCN)C(=O)N[C@H](C(=O)N[C@@H](CCN)C(=O)N[C@H]1CCNC(=O)[C@H]([C@@H](C)O)NC(=O)[C@H](CCN)NC(=O)[C@H](CCN)NC(=O)[C@H](CC(C)C)NC(=O)[C@@H](Cc2ccccc2)NC(=O)[C@@H](CCN)NC1=O)[C@@H](C)O (some centres not stated) | inactive: -0.646 | inactive: -1.35 | inactive: -0.788
CC(C)C[C@@H](C(=O)Nc1ccn(C[C@H](O)CO)n1)N1CC(Oc2ccccc2Cl)=CC1=O | inactive: 1.01 | inactive: -0.88 | inactive: 3.02
